From ChEMBL document CHEMBL1155017, “The use of natural product scaffolds as leads in the search for trypanothione reductase inhibitors” (Bioorg Med Chem, 2008)

Chains of the proteins cited; added tags and fusions are not shown. Lines headed by an entry give the natural chain unless they say otherwise; changes in a name come on top.
UniProt P28593: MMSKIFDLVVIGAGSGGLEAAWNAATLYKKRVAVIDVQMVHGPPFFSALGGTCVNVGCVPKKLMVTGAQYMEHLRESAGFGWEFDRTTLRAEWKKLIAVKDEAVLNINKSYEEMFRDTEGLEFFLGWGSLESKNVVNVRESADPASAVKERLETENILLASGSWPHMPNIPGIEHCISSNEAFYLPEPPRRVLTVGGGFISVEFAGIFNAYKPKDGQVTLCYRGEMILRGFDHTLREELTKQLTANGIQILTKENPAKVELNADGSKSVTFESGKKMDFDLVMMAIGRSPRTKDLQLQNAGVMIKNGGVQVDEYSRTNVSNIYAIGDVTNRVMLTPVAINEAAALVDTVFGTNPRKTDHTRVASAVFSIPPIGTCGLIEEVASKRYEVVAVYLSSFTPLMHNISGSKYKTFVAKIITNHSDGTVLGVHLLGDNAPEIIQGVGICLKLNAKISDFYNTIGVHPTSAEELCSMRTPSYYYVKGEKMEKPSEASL

Biological target: Trypanothione reductase (Trypanosoma cruzi, UniProt P28593)
Assay: Inhibition of Trypanosoma cruzi recombinant trypanothione reductase

## CN(C)CCCN1c2ccccc2CCc2ccc(Cl)cc21 [CLOMIPRAMINE]
  Ki: 7 µM
